Measurements from patent US20180133257A1.
No constants are given. Whether binding was seen depends on the method and setting. For some of these results: Binding seen in cells or lysates may run through a third protein. Some results given as binding are weak or reduced against the parent protein; the word gives no strength.

Columns and labels:
[1] = target: T1, KAI1 (CD82), mouse (mouse) (UniProt P40237); test: fluorescence staining of Tie2-GFP mouse femur sections
T1 sequence: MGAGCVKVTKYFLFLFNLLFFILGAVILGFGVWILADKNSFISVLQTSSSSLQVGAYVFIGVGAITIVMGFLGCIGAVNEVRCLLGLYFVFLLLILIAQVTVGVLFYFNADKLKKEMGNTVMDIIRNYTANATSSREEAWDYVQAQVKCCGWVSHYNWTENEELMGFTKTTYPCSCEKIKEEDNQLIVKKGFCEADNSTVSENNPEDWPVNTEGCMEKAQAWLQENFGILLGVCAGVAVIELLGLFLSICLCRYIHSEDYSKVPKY

[2] = target: T1, KAI1 (CD82), mouse (mouse); test: co-culture of mouse F4/80(+) cells and CFSE-tagged Lin(-) cells, fluorescence staining of KAI1 and DARC
[3] = target: T1, KAI1 (CD82), mouse (mouse); test: fluorescence staining of C57 mouse femur sections (CD150, KAI1, DARC)
[4] = target: T1, KAI1 (CD82), mouse (mouse); test: co-immunoprecipitation from EML cells: IP with KAI1 antibody and Western blot of DARC, and the reverse

Measured: binding

B1: Duffy antigen receptor for chemokines (DARC), mouse (receptor)
chain: MGNCLYPVENLSLDKNGTQFTFDSWNYSFEDNYSYELSSDYSLTPAAPCYSCNLLGRSSLPFFMLTSVLGMLASGGILFAILRPFFHWQICPSWPILAELAVGSALFSIAVPILAPGLHSAHSTALCNLGYWVWYTSAFAQALLIGCYACLNPRLNIGQLRGFTLGLSVGLWGAAALLGLPVALASDAYNGFCAFPSSRDMEALKYMHYAICFTIFTVLPPTLLAAKGLKIALSKGPGPWVSVLWIWFIFWWPHGMVLIFDALVRSKIVLLYTCQSQKILDAMLNVTEALSMLHCVATPLLLALFCHQTTRRSLSSLSLPTRQASQMDALAGKS
binds: [1] | [2] | [3] | [4]
